Test results: paper PMC11922745, “Reconstitution of SPO11-dependent double-strand break formation” (Nature, 2024)
For at least one entry, the source does not settle the construct or the ends of the probe. For part of these data: At least one verdict was read from the data and is not stated in words by the source.

Assays:
[1] = system: SPO11 Y138F + SPO11 E224A + TOP6BL; test: gel of covalent complex with or without proteinase K; details: 5 mM Mn2+, 5 nM of each mutant complex, SPO11 covalently bound to nicked DNA; covalently closed circle (ligated); recombinant protein; protein details: N-terminal Flag-TEV,N-terminal Flag-TEV,untagged; label: 32P (5' labelled, then ligated); folded or branched DNA
[2] = system: SPO11 (beta isoform) + TOP6BL; test: EMSA; details: Hairpin EMSA: 25 mM Tris-HCl pH 7.5, 100 mM NaCl, 5 mM MgCl2, 7.5% glycerol, 2 mM DTT, 1 mg/ml BSA, 0.1 nM DNA, 30 min 30 C, recombinant protein, protein details: N-terminal Flag-TEV,untagged, label: 5'-32P

Sequence | binding result ([2]; double-end binding) | further results
CGGTTCAAAAGAACCGGAGCTGAATGAAGCCATACCAAACGACGAGCGTGACACAAAAGTGTCACGCTCGTCGTTTGGTATGGCTTCATTCAGCTC |  | binding result [1]: binds
TAGCAATGTAATCGTCTATGACG / TACGTCATAGACGATTACATTGC [21 bp double-overhang duplex] |  | binding result ([2]; double-end binding largely or completely restored at higher protein): binds
TAGCAATGTAATCGTCTATGACGTGATAGCGC / TAGCGCTATCACGTCATAGACGATTACATTGC [30 bp double-overhang duplex] | binds | 
TAGCAATGTAATCGTCTATGACGTGCATAGCGC / TAGCGCTATGCACGTCATAGACGATTACATTGC [31 bp double-overhang duplex] | binds | 
TAGCAATGTAATCGTCTATGACGTGTAGCGC / TAGCGCTACACGTCATAGACGATTACATTGC [29 bp double-overhang duplex] | binds | 
TAGCAATGTAATCGTCTATGACGTGTCATAGCGC / TAGCGCTATGACACGTCATAGACGATTACATTGC [32 bp double-overhang duplex] | binds | 
